Data on 116 substances can be found in the supplement of paper PMC5949888.

Most values lie at the floor of the assay. Slopes are relative: functional sequences can read slightly below zero. Where only a bound is given, the exact number is not on record here.

The data set deals with Saccharomyces cerevisiae PS128 hsf1 delta, HSF1(1-493) fusion. Kind of data set: growth estimate (transactivation domain function in HSF1 fusion, heat-shock survival) (a.u. (slope of normalised read count over time)); higher = stronger growth at 37°C, i.e. more transactivation activity. The following applies: library: random library. How it is done:
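Random 60-nt DNA library encoding peptides of up to 20 aa, fused to the C-terminus of yeast HSF1 residues 1-493 (C-terminal TAD deleted) and expressed from the native HSF1 promoter on a CEN plasmid in hsf1-deleted S. cerevisiae PS128. Cells were selected at 37°C on -trp 5-FOA plates for 0, 2, 4, 6 and 8 days and amplicons were sequenced. Growth estimate is the slope of a robust linear fit of total-sum-normalised read counts (normalised to the first time point) over time, using at least 2 replicates. Sequences are classed functional (TAD activity) above a threshold of -0.13, set from stop-codon control sequences.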
Take MAMSERY: the growth estimate was 0.0934.
To LPKLSLWDRSFTWLIPWTTV belongs less than -0.25; to STELPWRPNGRIRGPAVVYM, less than -0.25.
As for RASGA, the growth estimate is less than -0.25.
Take DRQRCLIESASEYERDTAHG: the growth estimate is less than -0.25.
Consider HTFHVQRRSVGTIGPTTTGS, for which the growth estimate is less than -0.25.
Next, KVCTLLRSLVTERVDL: less than -0.25; NSSVSWDPKHAGGLRYA: less than -0.25.
Next, GTASS: less than -0.25; WNLY: -0.246; IVSEIPTT: less than -0.25.
In the case of GGTTLEHACLMRVDSCRLRR, the growth estimate is less than -0.25.
To CSTSVGVQWVVSSANVRNND belongs less than -0.25; to EIQKGTA, less than -0.25; to IWP, less than -0.25.
Next, VHLLVCGGSHFGLVPRVLTF: less than -0.25; ELGDAIKSVYRAADPVYLGR: less than -0.25.
To PVRNI belongs less than -0.25; to IRSDRGMFKVRLTAGVIRPQ, less than -0.25.
Turning to NTRTAHRGWRHQQGGVVCRP, the growth estimate was less than -0.25.
Turning to SLVI, the growth estimate is less than -0.25.
Next, PIMVASVSKTSYFVPYL: less than -0.25; SPTYLRRCAVRHTVTDERFP: less than -0.25.
To WDRTSSKGVLPRRKFQLENW belongs less than -0.25; to WRINAFRDPAQDYLLRVGAL, less than -0.25.
With PCIGSFSSDGG, the growth estimate is less than -0.25.
Next, TRTD: less than -0.25; GDYGSVRES: less than -0.25.
With DFYWPARNASMAQ, the growth estimate is less than -0.25.
Take PDIMESTRLETKTVAPLSRH: the growth estimate is less than -0.25.
As for KSIAKPTFIKAMGCLVPSRE, the growth estimate was less than -0.25.
To TNSPRNRTVDTENVRTQVLW belongs less than -0.25.
Next, QSIEFTSSAVLASSV: less than -0.25; PSECT: less than -0.25; RMLSDKLRKHPRTLREATTN: less than -0.25.
Regarding QGRRAYRRFGRGGRRGETLA, the growth estimate was less than -0.25.
Take DSQRTLLVRCYSVAVQ: the growth estimate was less than -0.25.
As for GRGYSLGVRSRI, the growth estimate was less than -0.25.
Next, SPQGRLSRGAESVSFPGVRR: less than -0.25; YICVIGREA: less than -0.25.
Next, IDYQPKVVTME: less than -0.25; AGIRTHWEIKFR: less than -0.25.
To DGRLSLS belongs less than -0.25; to GQENQGQGHLVQSCIYPGQS, less than -0.25; to PVVGKLAA, less than -0.25.
For the substance VEATDYS, the growth estimate was less than -0.25.
Next, LPVTMAN: -0.173; SGESHWLLAMTHH: less than -0.25.
For the substance VTCIQVRRCVLYRTGLCSDH, the growth estimate was less than -0.25.
Next, LCRQVGC: less than -0.25; NVRNGRAIRVLWFRQALAGA: less than -0.25.
For the substance VRKEWRAWTAYRVRSTGPWL, the growth estimate is less than -0.25.
To PDSRSEDEAGTFLYWTQFRP belongs less than -0.25.
To REFRPLLAGWCMLGGSIELV belongs less than -0.25.
Next, LYHGLYVFANSSYHRGGF: less than -0.25.
Consider RRCGRF, for which the growth estimate is less than -0.25.
CAFYLSLSLLGHYAACLSLP: the growth estimate was less than -0.25.
In the case of SFLPLSFGET, the growth estimate is less than -0.25.
Next, RVSGK: less than -0.25.
As for FFYLSHGIG, the growth estimate was less than -0.25.
As to SCFTISSNSGDTRLVCRGVG, the growth estimate is less than -0.25.
To RFFGHYGKLRTWRKDGS belongs less than -0.25; to IGMLVARAAASGTQTGSGSE, less than -0.25.
As for SYLDTYWVGTNGGLSLWSIC, the growth estimate is less than -0.25.
Next, NWAWGAS: less than -0.25; FPEAAHEYGLCCRLSFGGPS: less than -0.25.
To LSPRL belongs less than -0.25.
In the case of RDCETVVAVSERKGEWLAKE, the growth estimate was less than -0.25.
To PYDGAFFIGRKNLA belongs less than -0.25.
Turning to QCYVEGALGSDALFMESSMN, the growth estimate was -0.082.
As to IVICLIRMDHRGHAAT, the growth estimate is less than -0.25.
Next, RADCEVMQVWQQGTGQSAGP: less than -0.25.
Regarding SSLGSSGAFSLGLGRGIRRD, the growth estimate was less than -0.25.
To SWKWS belongs 0.0639; to PKERHLSEPCEWTGKINLVA, less than -0.25; to DSYWKCSPHGRLFFFSPPRA, -0.131.
Regarding IGFFHKLQYGS, the growth estimate was less than -0.25.
Next, ELP: less than -0.25.
Next, VIADRSQSIESVLPDRSWGD: less than -0.25; LKAVECVTSPT: less than -0.25.
In the case of TSVQGRVLRTWGVEFGTLSQ, the growth estimate is less than -0.25.
For the substance REVYMPRVRRDSVCLLAF, the growth estimate was less than -0.25.
To LKHRKWQVEVSCICSRTRQQ belongs less than -0.25.
To RKVAIMLERRIFNAIRECAS belongs less than -0.25.
Next, VYMI: less than -0.25.
VIYGSFRFRIPKSACNLPRV: the growth estimate is less than -0.25.
Next, PSMSG: less than -0.25; ALCAVWTEDSLTL: less than -0.25.
For GSYQRRSLVYIHLTCRRTVQ, the growth estimate was less than -0.25.
To FTRTTAHYPRVCNGSRSR belongs less than -0.25; to KQRDNPTER, less than -0.25; to QGRVVGGTRVRRGVTGAGRW, less than -0.25.
As to ICRGIRTLGGFVTSMSGTTT, the growth estimate was less than -0.25.
To AAVLLAYGRTCATVLCFFEF belongs less than -0.25; to NRGTGSLG, less than -0.25.
Next, DMVCNFPQGTR: less than -0.25.
Next, PTQCLSKKVITHGEDHTLTE: less than -0.25.
With GCTAVGRESSKAEREMGGPR, the growth estimate was less than -0.25.
Next, VRIQDCLWAAGRLKFVAYGF: -0.243; KPY: less than -0.25.
To TCGC belongs less than -0.25; to FFYAHRARSAN, less than -0.25; to RMGASPQRVFIENTAKPVKQ, less than -0.25.
Next, DRVHRQ: less than -0.25.
Consider TPQLARYSWQNGVKRGLSAD, for which the growth estimate was less than -0.25.
To TILRI belongs less than -0.25.
Next, HKIGSGSKARVGSTPE: less than -0.25; QVQDLSYGVRLQGPDSGRGP: less than -0.25.
To YSKELA belongs less than -0.25.
In the case of RTSGPEKKVFGIACVNRTRP, the growth estimate was less than -0.25.
Next, KGFCIIST: less than -0.25; SGPGMQE: less than -0.25.
To WASSPAPGGDDI belongs less than -0.25.
As for FYAGREASSNMSGVVSLLVP, the growth estimate was less than -0.25.
YANHGYPYRDYELFSISAHR: the growth estimate was less than -0.25.
To YWTNSLCQVC belongs less than -0.25.
